Reference: publication PMC6400558 (2019)
Substitutions are numbered along the chain they refer to. No constants are given. Whether binding was seen depends on the method and setting. Binding seen in cells or lysates may run through a third protein. For some assays here: Binding can be weak; no strength is given. For some assays here: Tags and fused reporters may be left off the sequences shown.

What was measured:
[1] = molecular target: T1, MBP-tagged Hook2 N427 Q143A (human) (UniProt Q96ED9); assay: pull-down; MBP-tagged Hook2 N427 (WT or mutants) on amylose beads incubated with whole-cell lysate of HEK293T cells (asynchronous, or harvested in cytokinesis for MKLP1), 4°C, 3 h, 20 mM Hepes pH 7.4, 350 mM NaCl, 1 mM DTT, 2 mM MgCl2, 0.1% Triton X-100, 2 mg/ml BSA; immunoblot; only the target purified
T1 sequence: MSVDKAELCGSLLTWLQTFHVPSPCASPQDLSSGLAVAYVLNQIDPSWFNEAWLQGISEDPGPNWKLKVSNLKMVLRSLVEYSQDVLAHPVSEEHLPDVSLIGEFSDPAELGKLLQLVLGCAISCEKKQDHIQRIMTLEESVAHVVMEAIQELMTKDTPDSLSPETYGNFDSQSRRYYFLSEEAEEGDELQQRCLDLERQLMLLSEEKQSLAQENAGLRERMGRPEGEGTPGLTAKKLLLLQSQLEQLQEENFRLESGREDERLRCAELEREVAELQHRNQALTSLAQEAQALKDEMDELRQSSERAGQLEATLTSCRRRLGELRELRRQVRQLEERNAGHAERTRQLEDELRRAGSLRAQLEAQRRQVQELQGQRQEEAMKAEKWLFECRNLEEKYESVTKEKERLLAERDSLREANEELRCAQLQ

[2] = molecular target: T2, MBP-tagged Hook2 Hook+CC1 (N427) WT (human) (UniProt Q96ED9); assay: as above
T2 sequence: T1 sequence with A143Q

[3] = molecular target: T3, MBP-tagged Hook2 N427 I150A (human) (UniProt Q96ED9); assay: as above
T3 sequence: T1 sequence with A143Q, I150A

[4] = molecular target: T4, mitotic kinesin-like protein 1 (MKLP1) (human (endogenous in HEK293T)) (UniProt Q02241); assay: co-IP; endogenous proteins; HEK293T lysates in TAP lysis buffer (20 mM Tris-HCl pH 7.4, 150 mM NaCl, 0.5% NP-40) with antibody on protein-A/G beads, 3 h, 4°C; cells asynchronous or synchronized (G2, prometaphase, metaphase/anaphase, cytokinesis), with control or other siRNAs or Hook2 plasmids; immunoblot
T4 sequence: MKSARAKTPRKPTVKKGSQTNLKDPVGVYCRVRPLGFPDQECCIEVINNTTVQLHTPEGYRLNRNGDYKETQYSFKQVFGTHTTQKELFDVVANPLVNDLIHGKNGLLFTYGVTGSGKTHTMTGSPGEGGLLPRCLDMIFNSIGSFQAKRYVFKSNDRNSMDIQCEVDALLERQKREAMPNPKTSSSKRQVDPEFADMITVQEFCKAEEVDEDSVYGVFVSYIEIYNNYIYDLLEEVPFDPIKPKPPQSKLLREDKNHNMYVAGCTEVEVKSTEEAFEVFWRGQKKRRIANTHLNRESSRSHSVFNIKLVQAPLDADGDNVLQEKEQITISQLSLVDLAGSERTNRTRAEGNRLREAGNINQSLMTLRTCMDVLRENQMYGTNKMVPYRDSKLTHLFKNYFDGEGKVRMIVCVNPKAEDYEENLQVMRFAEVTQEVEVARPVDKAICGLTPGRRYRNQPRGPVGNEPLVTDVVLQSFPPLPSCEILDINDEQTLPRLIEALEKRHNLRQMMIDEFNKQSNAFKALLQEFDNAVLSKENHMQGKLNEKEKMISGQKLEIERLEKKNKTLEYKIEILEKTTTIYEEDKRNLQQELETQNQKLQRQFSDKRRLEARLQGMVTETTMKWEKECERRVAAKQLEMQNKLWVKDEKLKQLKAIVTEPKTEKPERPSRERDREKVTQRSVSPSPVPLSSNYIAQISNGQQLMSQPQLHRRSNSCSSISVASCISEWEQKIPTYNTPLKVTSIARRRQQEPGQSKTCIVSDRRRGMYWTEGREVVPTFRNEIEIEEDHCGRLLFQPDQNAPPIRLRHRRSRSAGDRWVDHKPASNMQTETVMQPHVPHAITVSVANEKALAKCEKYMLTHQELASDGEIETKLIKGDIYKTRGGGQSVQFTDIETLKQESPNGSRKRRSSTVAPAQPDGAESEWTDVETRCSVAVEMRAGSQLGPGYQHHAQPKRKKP

[5] = molecular target: T5, Hook2 (endogenous) (human (endogenous in HEK293T)) (UniProt Q96ED9); assay: as above
T5 sequence: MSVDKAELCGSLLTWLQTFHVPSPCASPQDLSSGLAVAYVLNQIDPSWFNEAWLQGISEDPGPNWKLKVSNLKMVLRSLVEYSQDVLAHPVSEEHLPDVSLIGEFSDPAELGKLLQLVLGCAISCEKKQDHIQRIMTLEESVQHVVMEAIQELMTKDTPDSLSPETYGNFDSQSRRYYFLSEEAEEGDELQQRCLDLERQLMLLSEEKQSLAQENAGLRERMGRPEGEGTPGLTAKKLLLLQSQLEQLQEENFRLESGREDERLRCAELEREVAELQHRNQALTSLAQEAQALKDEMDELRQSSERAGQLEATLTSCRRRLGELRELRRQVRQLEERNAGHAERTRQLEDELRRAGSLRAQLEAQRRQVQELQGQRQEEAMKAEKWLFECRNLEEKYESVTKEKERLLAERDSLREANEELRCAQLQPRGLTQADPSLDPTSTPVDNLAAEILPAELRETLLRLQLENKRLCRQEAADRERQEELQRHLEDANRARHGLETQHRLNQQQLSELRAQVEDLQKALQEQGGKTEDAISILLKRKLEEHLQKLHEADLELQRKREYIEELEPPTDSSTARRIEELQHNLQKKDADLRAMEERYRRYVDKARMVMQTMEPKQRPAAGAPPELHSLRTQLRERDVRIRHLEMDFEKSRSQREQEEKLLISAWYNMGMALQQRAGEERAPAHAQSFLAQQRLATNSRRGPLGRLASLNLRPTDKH

binding [1]: no binding | binding [3]: no binding | binding [4]: binds | binding [5]: binds
Substance: dynein intermediate chain (DIC) (human (endogenous in HEK293T))
binding [2]: binds
